In patent US20190177419A1 (BERGEN TEKNOLOGIOVERFORING, published 2019):
These are yes or no findings as the source states them, for the method shown. Some binding calls cover weakened binding; strength is not graded here.

The chains behind the UniProt entries cited, without tags or fusion partners. Where a name states a change or a piece, a line headed by the entry shows the natural chain unless it says otherwise. Residues count along the entry.
UniProt P30530: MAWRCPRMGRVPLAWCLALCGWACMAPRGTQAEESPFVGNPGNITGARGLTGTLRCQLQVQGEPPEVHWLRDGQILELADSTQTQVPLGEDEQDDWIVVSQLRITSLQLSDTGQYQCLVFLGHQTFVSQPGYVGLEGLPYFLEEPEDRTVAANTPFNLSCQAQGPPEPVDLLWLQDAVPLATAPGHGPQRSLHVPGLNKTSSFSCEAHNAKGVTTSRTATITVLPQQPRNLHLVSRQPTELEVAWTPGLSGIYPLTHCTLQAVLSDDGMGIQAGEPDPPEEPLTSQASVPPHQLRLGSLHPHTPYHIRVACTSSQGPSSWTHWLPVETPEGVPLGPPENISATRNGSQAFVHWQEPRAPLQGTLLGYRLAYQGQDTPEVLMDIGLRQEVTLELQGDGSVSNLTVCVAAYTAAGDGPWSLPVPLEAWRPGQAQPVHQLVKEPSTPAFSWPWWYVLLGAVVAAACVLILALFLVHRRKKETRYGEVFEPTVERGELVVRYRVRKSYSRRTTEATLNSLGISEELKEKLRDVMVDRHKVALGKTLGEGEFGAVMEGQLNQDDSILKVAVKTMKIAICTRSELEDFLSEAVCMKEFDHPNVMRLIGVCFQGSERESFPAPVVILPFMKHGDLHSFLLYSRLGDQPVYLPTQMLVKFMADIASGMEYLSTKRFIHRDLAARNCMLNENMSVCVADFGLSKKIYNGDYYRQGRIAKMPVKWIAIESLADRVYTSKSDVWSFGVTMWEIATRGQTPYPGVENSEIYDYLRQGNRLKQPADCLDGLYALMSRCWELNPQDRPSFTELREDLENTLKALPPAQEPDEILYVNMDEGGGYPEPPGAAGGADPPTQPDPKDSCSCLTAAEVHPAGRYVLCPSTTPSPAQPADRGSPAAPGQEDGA
human Axl receptor on cells (Axl-positive MDA-MB-231 cells; HeLa cells; Axl+ cells): residues 26-894 of P30530
recombinant human Axl-Fc chimera (R&D Systems, Cat. no. 154-AL): residues 26-451 of P30530

What was measured:
[1] = molecular target: recombinant human Axl-Fc chimera (R&D Systems, Cat. no. 154-AL) (human) (UniProt P30530); experiment: SPR (Biacore 3000), rhAxl-Fc immobilised on a CM5 chip, antibody injected at 10 µg/mL for 3 min, 5 min dissociation [panel 10G5 vs. c10G5]
[2] = molecular target: human Axl receptor on cells (Axl-positive MDA-MB-231 cells; HeLa cells; Axl+ cells) (human) (UniProt P30530); experiment: flow cytometry on MDA-MB-231 cells, detection with APC-conjugated donkey anti-human IgG (H+L) F(ab')2
[3] = molecular target: recombinant human Axl-Fc chimera (R&D Systems, Cat. no. 154-AL) (human) (UniProt P30530); experiment: SPR, Biacore 3000, rhAxl-Fc immobilised on CM5 (1,308.0 RU), antibody 10 µg/mL
[4] = molecular target: human Axl receptor on cells (Axl-positive MDA-MB-231 cells; HeLa cells; Axl+ cells) (human) (UniProt P30530); experiment: flow cytometry on MDA-MB-231 cells
[5] = molecular target: recombinant human Axl-Fc chimera (R&D Systems, Cat. no. 154-AL) (human) (UniProt P30530); experiment: SPR kinetics (Biacore 3000), rhAxl-Fc immobilised on a CM5 chip, antibody series injected for 3 min [panel c10G5]

binding [1]: binds
binding [2]: binds
binding [3]: binds
binding [4]: binds
binding [5]: binds
B1: chimeric (mouse variable/human constant) IgG1 antibody c10G5 (antibody, V domains shown)
VH: QVQLQQSGAELVRPGASVKLSCKASGYSFTDFYINWVRQRPGQGLEWIARIFPGGDNTYYNEKFKGKATLTAEESSSTAYIQLSSLTSEDSAVYFCARRGLYYAMDYWGQGISVTVSS
VL: DVLMTQTPLSLPVSLGDQASISCRSSQSLVHSNGIPYLHWYLQKPGQSPKLLIYRVSNRFSGVPDRFSGSGSGTDFTLKISRVEAEDLGVYFCSQGTHVPPTFGGGTKLEIK
notes: 10G5 VH and VL joined in frame to human IgG1 and C-kappa constant domains, made in CHO cells; also called chimeric 10G5; not shown: constant domains of the human IgG1 heavy chain; constant domain of the human light (C-kappa) chain
